Data as given in publication PMC4764899.
These are yes or no findings as the source states them, for the method shown. Binding seen in cells or lysates may run through a third protein. Some binding calls cover weakened binding; strength is not graded here. For some assays here: Where a sequence is shown, tags or fusion partners need not be part of it.

Amino acid sequences for entries named in this document (tags omitted). Residues count along the entry.
UniProt P61289: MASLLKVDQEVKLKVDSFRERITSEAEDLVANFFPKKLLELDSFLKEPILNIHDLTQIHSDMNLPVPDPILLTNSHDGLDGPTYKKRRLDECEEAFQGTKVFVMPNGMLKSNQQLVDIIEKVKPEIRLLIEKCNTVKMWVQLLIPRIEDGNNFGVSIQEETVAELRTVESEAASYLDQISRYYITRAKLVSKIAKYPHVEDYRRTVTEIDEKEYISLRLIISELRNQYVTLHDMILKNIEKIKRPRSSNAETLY
UniProt P25963: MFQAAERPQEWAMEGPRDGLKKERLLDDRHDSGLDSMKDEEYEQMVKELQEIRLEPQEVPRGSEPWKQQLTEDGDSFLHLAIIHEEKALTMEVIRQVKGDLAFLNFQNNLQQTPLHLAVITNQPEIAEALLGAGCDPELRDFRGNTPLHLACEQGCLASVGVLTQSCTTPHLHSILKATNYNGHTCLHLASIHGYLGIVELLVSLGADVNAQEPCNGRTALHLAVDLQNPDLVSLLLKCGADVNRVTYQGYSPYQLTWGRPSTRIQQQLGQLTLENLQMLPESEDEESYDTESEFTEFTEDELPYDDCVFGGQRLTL
UniProt P15307: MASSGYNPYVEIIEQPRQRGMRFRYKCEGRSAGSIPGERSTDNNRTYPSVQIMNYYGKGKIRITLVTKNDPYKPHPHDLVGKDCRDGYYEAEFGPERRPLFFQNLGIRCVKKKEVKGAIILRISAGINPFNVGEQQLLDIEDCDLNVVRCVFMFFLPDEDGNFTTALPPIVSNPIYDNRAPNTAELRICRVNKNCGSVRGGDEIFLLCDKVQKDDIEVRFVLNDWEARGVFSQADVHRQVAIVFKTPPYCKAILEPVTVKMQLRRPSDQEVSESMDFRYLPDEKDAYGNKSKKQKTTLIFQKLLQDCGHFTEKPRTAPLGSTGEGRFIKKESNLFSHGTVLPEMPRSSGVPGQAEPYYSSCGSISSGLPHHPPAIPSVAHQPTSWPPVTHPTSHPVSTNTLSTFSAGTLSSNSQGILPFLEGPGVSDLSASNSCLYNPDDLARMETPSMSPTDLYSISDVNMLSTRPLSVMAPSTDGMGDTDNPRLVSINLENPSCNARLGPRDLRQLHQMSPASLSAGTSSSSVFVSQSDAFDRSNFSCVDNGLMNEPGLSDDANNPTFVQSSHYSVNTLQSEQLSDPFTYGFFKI
UniProt P19838, residues 1-433: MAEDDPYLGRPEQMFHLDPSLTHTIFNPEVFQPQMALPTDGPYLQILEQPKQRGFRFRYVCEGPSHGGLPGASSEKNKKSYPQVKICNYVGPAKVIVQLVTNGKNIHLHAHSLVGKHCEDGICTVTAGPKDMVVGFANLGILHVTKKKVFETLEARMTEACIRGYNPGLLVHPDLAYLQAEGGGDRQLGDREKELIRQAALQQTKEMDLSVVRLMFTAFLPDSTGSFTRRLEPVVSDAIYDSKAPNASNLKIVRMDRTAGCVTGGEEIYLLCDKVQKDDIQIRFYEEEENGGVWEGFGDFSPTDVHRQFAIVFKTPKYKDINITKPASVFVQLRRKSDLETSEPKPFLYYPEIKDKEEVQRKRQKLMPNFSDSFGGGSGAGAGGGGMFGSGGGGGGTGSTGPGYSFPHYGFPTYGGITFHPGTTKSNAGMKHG
UniProt Q04206: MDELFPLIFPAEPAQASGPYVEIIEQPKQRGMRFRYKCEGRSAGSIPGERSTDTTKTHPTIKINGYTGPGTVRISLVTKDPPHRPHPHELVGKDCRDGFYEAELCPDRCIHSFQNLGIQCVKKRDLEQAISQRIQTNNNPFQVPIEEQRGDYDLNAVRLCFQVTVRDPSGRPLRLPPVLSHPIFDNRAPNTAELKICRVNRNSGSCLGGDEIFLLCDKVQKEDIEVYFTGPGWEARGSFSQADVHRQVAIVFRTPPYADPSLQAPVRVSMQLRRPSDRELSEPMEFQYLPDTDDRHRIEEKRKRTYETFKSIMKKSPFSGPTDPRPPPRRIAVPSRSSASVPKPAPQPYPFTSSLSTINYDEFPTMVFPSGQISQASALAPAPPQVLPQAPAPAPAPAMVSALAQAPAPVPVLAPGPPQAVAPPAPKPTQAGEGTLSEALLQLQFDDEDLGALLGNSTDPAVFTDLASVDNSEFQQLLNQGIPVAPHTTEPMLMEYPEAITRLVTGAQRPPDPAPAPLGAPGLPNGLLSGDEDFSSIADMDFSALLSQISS
UniProt Q04207: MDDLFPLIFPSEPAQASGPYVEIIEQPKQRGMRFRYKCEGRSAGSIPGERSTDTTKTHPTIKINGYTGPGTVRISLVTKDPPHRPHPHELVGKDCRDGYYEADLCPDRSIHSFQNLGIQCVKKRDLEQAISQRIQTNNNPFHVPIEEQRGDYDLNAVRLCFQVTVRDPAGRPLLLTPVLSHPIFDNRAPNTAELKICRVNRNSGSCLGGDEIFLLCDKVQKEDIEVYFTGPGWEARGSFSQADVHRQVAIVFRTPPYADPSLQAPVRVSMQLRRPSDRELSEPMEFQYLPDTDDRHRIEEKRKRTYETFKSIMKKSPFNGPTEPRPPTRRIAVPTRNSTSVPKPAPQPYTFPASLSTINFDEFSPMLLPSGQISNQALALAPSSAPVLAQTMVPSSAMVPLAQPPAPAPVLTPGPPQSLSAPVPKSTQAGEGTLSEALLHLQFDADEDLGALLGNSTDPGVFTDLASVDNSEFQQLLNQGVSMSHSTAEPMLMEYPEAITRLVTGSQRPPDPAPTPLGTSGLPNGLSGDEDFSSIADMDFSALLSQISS
UniProt P25799, residues 1-431: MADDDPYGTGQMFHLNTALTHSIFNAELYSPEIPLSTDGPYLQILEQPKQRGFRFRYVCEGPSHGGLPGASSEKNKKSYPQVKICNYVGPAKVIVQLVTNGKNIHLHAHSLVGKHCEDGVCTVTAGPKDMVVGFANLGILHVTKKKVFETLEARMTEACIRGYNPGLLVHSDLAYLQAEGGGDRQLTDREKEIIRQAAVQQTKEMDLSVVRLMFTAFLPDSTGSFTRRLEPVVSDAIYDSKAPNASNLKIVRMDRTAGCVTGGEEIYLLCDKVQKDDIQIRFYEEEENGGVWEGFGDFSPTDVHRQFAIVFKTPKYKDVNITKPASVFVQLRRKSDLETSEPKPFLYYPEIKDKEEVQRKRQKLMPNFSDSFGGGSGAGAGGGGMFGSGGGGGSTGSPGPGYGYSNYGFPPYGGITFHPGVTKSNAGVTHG

T1: IκBɛ (endogenous, HCT116 cells) (human (endogenous in HCT116)) (UniProt O00221)
T1 sequence: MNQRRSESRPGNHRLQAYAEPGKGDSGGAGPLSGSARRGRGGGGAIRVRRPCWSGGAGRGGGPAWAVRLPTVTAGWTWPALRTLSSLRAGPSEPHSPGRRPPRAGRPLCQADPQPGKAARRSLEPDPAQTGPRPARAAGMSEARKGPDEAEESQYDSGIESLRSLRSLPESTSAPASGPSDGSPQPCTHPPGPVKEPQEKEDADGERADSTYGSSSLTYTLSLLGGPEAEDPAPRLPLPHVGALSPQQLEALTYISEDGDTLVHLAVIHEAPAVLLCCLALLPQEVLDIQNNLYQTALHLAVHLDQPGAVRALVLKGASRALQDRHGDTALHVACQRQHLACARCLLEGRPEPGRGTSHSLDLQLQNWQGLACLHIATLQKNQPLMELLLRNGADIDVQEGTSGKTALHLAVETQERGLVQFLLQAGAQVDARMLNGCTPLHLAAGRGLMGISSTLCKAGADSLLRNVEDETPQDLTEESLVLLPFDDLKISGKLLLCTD

T2: IκBɛ (endogenous, murine colon epithelial cells) (mouse (endogenous in colon epithelial cells)) (UniProt O54910)
T2 sequence: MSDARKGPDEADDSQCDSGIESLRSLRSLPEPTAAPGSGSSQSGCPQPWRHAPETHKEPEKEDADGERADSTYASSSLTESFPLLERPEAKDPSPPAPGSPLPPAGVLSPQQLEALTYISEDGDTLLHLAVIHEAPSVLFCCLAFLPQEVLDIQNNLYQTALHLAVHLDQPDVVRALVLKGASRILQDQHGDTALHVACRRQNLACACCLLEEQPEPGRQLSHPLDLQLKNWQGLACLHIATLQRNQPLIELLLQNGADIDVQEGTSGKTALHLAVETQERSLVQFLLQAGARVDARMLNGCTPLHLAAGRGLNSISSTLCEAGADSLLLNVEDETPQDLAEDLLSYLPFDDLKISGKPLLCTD


Legend:
[1] = molecular target: GST-REGγ (UniProt P61289); assay: pull-down; lysate of 293T cells transiently transfected with flag-IκBɛ, IκBα or IκBβ and GST-REGγ; GST-REGγ as bait; the text calls it co-immunoprecipitation
[2] = molecular target: T1, IκBɛ (endogenous, HCT116 cells) (human (endogenous in HCT116)); assay: co-IP; HCT116 shN and shR (REGγ knockdown) cells; IP with an anti-IκBɛ antibody
[3] = molecular target: T2, IκBɛ (endogenous, murine colon epithelial cells) (mouse (endogenous in colon epithelial cells)); assay: co-IP; colon epithelial cells from WT and REGγ-/- mice with or without prior exposure to DSS; IP with IκBɛ antibody, immunoblot

Molecule	binding [2]	binding [3]	also measured
flag-IκBα (from UniProt P25963 1-317)	–	–	binding [1]: no binding
cRel (endogenous, murine colon epithelial cells) (from UniProt P15307 1-587)	–	binds	–
flag-IκBβ (protein, UniProt Q15653 1-356) MAGVACLGKAADADEWCDSGLGSLGPDAAAPGGPGLGAELGPGLSWAPLVFGYVTEDGDTALHLAVIHQHEPFLDFLLGFSAGTEYMDLQNDLGQTALHLAAILGETSTVEKLYAAGAGLCVAERRGHTALHLACRVGAHACARALLQPRPRRPREAPDTYLAQGPDRTPDTNHTPVALYPDSDLEKEEEESEEDWKLQLEAENYEGHTPLHVAVIHKDVEMVRLLRDAGADLDKPEPTCGRSPLHLAVEAQAADVLELLLRAGANPAARMYGGRTPLGSAMLRPNPILARLLRAHGAPEPEGEDEKSGPCSSSSDSDSGDEGDEYDDIVVHSSRSQTRLPPTPASKPLPDDPRPV	–	–	binding [1]: no binding
cRel (endogenous, HCT116 cells) (protein, UniProt Q04864 1-619) MASGAYNPYIEIIEQPRQRGMRFRYKCEGRSAGSIPGEHSTDNNRTYPSIQIMNYYGKGKVRITLVTKNDPYKPHPHDLVGKDCRDGYYEAEFGQERRPLFFQNLGIRCVKKKEVKEAIITRIKAGINPFNVPEKQLNDIEDCDLNVVRLCFQVFLPDEHGNLTTALPPVVSNPIYDNRAPNTAELRICRVNKNCGSVRGGDEIFLLCDKVQKDDIEVRFVLNDWEAKGIFSQADVHRQVAIVFKTPPYCKAITEPVTVKMQLRRPSDQEVSESMDFRYLPDEKDTYGNKAKKQKTTLLFQKLCQDHVETGFRHVDQDGLELLTSGDPPTLASQSAGITVNFPERPRPGLLGSIGEGRYFKKEPNLFSHDAVVREMPTGVSSQAESYYPSPGPISSGLSHHASMAPLPSSSWSSVAHPTPRSGNTNPLSSFSTRTLPSNSQGIPPFLRIPVGNDLNASNACIYNNADDIVGMEASSMPSADLYGISDPNMLSNCSVNMMTTSSDSMGETDNPRLLSMNLENPSCNSVLDPRDLRQLHQMSSSSMSAGANSNTTVFVSQSDAFEGSDFSCADNSMINESGPSNSTNPNSHGFVQDSQYSGIGSMQNEQLSDSFPYEFFQV	binds	–	–

Continued, in another order:

binding [2]	binding [3]	Molecule	also measured
no binding	–	p50 (endogenous, HCT116 cells) (from UniProt P19838 1-433)	–
binds	–	p65 (endogenous, HCT116 cells) (from UniProt Q04206 1-551)	–
–	binds	p65 (endogenous, murine colon epithelial cells) (from UniProt Q04207 1-549)	–
–	no binding	p50 (endogenous, murine colon epithelial cells) (from UniProt P25799 1-431)	–
